Measured data: PubChem BioAssay AID1259308 (NCATS, 2017)
In all, the deposit lists about 59,000 reagents; this is a random part of them. About 1,510 of them (2.6%) were called active. 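Calls use total luciferase alone and ignore viability, so some active siRNAs may act by altering cell number.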

Assay: 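Genes whose loss raises luciferase production in HEK293 cells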 (primary screen)
System: human HEK293 embryonic kidney cells stably expressing firefly luciferase (HEK-CMV-Luc2-Hygro)
Reagent: single siRNA against human genes, 0.8 pmol siRNA per well
Timing: 72 h
Measurement: 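Reporter luminescence and viable-cell signal on separate replicate plates, given as percent of non-targeting control and median/MAD z-scores, plus per-cell luciferase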
Reading the numbers: total luciferase, z-score and total luciferase, % of control: higher = more reporter protein produced; luciferase per cell, z-score: higher = more reporter output per viable cell; viable cells, % of control: higher = more viable cells
Call rule: 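An siRNA counts as active if its total luciferase robust z-score exceeds 3; genes with two or more such siRNAs out of three were retested with fresh siRNAs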
Calls: active = raised luciferase; inactive = no rise

| gene | PubChem SID | total luciferase, z-score | total luciferase, % of control | luciferase per cell, z-score | viable cells, % of control | call |
| --- | --- | --- | --- | --- | --- | --- |
| MOB1A | SID160743300 | -1.3 | 56 | -1.59 | 95 | inactive |
| MOB1A | SID160743302 | 0.382 | 89.5 | 0.249 | 93.7 | inactive |
| MOB1A | SID160743303 | -0.571 | 70.5 | -0.97 | 102 | inactive |
| LMAN2 | SID160729627 | -0.323 | 75.5 | -0.424 | 94.3 | inactive |
| LMAN2 | SID160729628 | 0.502 | 91.9 | 0.569 | 88.4 | inactive |
| LMAN2 | SID160729629 | -0.716 | 67.6 | -0.59 | 88.3 | inactive |
| POLR2G | SID160714630 | -2.47 | 32.8 | -1.93 | 61 | inactive |
| POLR2G | SID160714631 | -2.93 | 23.7 | -3.06 | 59.2 | inactive |
| POLR2G | SID160714632 | -2.99 | 22.4 | -4.05 | 72.7 | inactive |
| CDH20 | SID160738837 | 1.11 | 104 | 0.568 | 99.9 | inactive |
| CDH20 | SID160738838 | -0.337 | 75.2 | -0.00169 | 84.1 | inactive |
| CDH20 | SID160738839 | 3.96 | 161 | 3 | 81.5 | active |
| MYCBP2 | SID160735393 | 1 | 102 | 0.904 | 89.6 | inactive |
| MYCBP2 | SID160735394 | 0.246 | 86.8 | 0.0515 | 95.7 | inactive |
| MYCBP2 | SID160735395 | -0.164 | 78.6 | -0.532 | 101 | inactive |
| SMIM34 | SID160733217 | -0.437 | 73.2 | 0.231 | 77 | inactive |
| SMIM34 | SID160766008 | -0.226 | 77.4 | -0.82 | 107 | inactive |
| SMIM34 | SID160766009 | -0.136 | 79.2 | -0.39 | 98 | inactive |
| DEDD2 | SID160759980 | -0.772 | 66.5 | -0.269 | 79.8 | inactive |
| DEDD2 | SID160759981 | -2.7 | 28.3 | -1.39 | 45.6 | inactive |
| DEDD2 | SID160759982 | -0.129 | 79.3 | -0.138 | 91.9 | inactive |
| SMPD2 | SID160717067 | -0.816 | 65.7 | -1.27 | 103 | inactive |
| SMPD2 | SID160717068 | -0.092 | 80.1 | -0.88 | 113 | inactive |
| SMPD2 | SID160717069 | -2.49 | 32.3 | -1.45 | 53 | inactive |
| AKAP7 | SID160722276 | 0.85 | 98.8 | 1.35 | 77.3 | inactive |
| AKAP7 | SID160722277 | 0.491 | 91.6 | 0.0361 | 101 | inactive |
| AKAP7 | SID160732184 | -0.28 | 76.3 | 0.0765 | 83.6 | inactive |
| PLEK | SID160714468 | -0.458 | 72.8 | -0.734 | 98.7 | inactive |
| PLEK | SID160714469 | 3.88 | 159 | 3.15 | 77.6 | active |
| PLEK | SID160714470 | -0.519 | 71.6 | -0.722 | 96.7 | inactive |
| MORF4L1 | SID160729554 | 0.547 | 92.8 | 0.113 | 101 | inactive |
| MORF4L1 | SID160729555 | -0.883 | 64.3 | -0.924 | 91.7 | inactive |
| MORF4L1 | SID160729556 | -0.764 | 66.7 | -1.16 | 101 | inactive |
| NRXN1-DT | SID160773507 | 5.32 | 188 | 4 | 73.1 | active |
| NRXN1-DT | SID160773508 | -0.149 | 78.9 | -0.87 | 111 | inactive |
| NRXN1-DT | SID160773509 | 0.177 | 85.4 | -0.54 | 110 | inactive |
| COG8 | SID160752198 | -0.502 | 71.9 | -0.712 | 96.9 | inactive |
| COG8 | SID160752199 | 3.17 | 145 | 1.82 | 100 | active |
| COG8 | SID160752200 | 2.44 | 130 | 1.64 | 94.7 | inactive |
